Structures were worked out from names or drawings and are uncertain.
Experiments:
OPM-2 cells = assay: Cell viability assay (OPM-2 cells), CCK-8; settings: read-out: OPM2 (WST, 5% FBS), 24 h
Experimental: Cell Viability Assay (OPM-2 Cells)
OPM-2 cells were obtained from Deutsche Sammlung von Mikroorganismen und Zellkulturen GmbH (DSMZ). […]
The effect of representative Compounds of the Disclosure on cell viability was determined using Cell Counting Kit-8 (CCK-8) assay (Shanghai Life iLab Bio Technology) according to the manufacturer's instructions. Each tested compound was serially diluted in culture medium, 100 μL of the compound dilution was added into 96-well plates. 100 μL of an OPM-2 cell suspension (20000 cells/well) in culture medium were seeded into the corresponding well of the plate and the cells were incubated at 37° C. in an atmosphere of 5% CO2 for 24 hours. In the next day, 20 μL of CCK-8 solution was added to each well of the plate and incubated for 4 hours.
The plates were read at 450 nm on the microplate spectrophotometer (SpectraMax plus 384, Molecular devices). The readings were normalized to the vehicle cells, and the IC50 was calculated by nonlinear regression analysis using GraphPad Prism 6 software.

Protein sequences, listed by entry. Tags and fused reporters are not part of them. Residues count along the entry.
UniProt Q07820, 171-323 limits assumed: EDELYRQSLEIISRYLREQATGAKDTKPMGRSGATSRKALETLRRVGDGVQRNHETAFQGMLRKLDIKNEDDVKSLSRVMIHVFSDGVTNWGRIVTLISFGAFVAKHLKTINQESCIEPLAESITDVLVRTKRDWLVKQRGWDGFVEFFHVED

[1] = target: Mcl-1 protein (residues 171-323) (Homo sapiens, UniProt Q07820); assay: Inhibition of Mcl-1 by fluorescence polarization (FP) competitive binding assay; settings: read-out: FP-Binding; FAM-Bid tracer 2 nM, Mcl-1 20 nM, 30 min
NCI-H929 cells = assay: Cell viability assay (NCI-H929 cells), CCK-8; settings: read-out: H929 (WST, 5% FBS), 24 h
Experimental: Cell Viability Assay (NCI-H929 Cells)
NCI-H929 cells were obtained from American Type Culture Collection (ATCC). Cells were maintained in the recommended culture medium (RPMI 1640) with 10% FBS and 0.05 mM BME at 37° C. and an atmosphere of 5% CO2.
The effect of Compounds on cell viability was determined using Cell Counting Kit-8 (CCK-8) assay according to the manufacturer's instructions. 95 μL of NCI-H929 cell suspension (20000 cells/well) in culture medium were seeded into 96-well plates and cultured 4 hrs. Each tested compound was serially diluted in DMSO, then 5 μL of the compound or DMSO was diluted in 95 μL medium once more. At last, 5 μL of the compound dilution was added to the corresponding well of the cell plate. After the addition of the tested compound, the cells were incubated at 37° C. in an atmosphere of 5% CO2 for 24 hrs. At the end, 10 μL of CCK-8 solution was added to each well of the plate and incubated for 1-4 hours. The plates were read at 450 nm on the microplate reader (BioTek Synergy 1MF). The readings were normalized to the vehicle cells, and the IC50 was calculated by nonlinear regression analysis using GraphPad Prism 6 software.

IC50 [1]: 0.0143 µM
IC50 (NCI-H929 cells): 0.058 µM
SMILES: Cn1c(C(=O)O)c2c3ccc(Cl)c(c31)-c1c(nn3c1CCC3)CSCc1ccc(nc1)CSc1cc(c3ccc(F)cc3c1)OCCC2
IC50 (OPM-2 cells): 0.145 µM
